Measured values reported in patent US20200061153A1 (BAYLOR COLLEGE OF MEDICINE, published 2020).

How the values were obtained:
[1] = molecular target: T1, P-selectin/Fc chimeric protein (UniProt P16109 42-771); experiment: SPR (BIACore), binding to immobilized P-sel/Fc, IgG control
T1 construct: also called P-sel/Fc; P-selectin/Fc protein; not shown: Fc part
T1 sequence (looked up): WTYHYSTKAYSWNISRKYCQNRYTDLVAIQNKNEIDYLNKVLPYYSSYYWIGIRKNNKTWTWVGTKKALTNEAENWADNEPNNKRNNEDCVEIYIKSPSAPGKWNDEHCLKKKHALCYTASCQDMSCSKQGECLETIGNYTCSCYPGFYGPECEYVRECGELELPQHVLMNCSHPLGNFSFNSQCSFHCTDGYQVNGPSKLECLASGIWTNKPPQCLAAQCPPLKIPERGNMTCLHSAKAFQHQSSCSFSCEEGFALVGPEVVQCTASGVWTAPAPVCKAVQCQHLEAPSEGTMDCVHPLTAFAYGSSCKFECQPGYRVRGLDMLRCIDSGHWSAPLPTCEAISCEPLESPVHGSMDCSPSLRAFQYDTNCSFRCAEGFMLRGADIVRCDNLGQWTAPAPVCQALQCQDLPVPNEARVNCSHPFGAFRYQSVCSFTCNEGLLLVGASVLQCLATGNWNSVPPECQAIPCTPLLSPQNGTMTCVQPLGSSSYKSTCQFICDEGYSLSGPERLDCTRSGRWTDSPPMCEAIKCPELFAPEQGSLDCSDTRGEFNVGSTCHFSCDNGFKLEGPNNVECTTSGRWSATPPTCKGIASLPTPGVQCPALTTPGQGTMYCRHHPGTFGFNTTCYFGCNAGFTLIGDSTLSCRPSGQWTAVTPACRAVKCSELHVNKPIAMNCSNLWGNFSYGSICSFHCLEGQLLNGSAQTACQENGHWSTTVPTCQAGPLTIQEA
Experimental: (§1) The observations in these experiments, in certain embodiments, are attributed to srhVim either affecting P-selectin, PSGL-1, or both. ELISA was performed by coating 96-well plates with either PSGL-1/Fc protein (10 μg/mL), P-selectin/Fc protein (10 μg/mL), or BSA (10 μg/mL) and adding various concentrations of srhVim to each well. Detection was through anti-His/HRP antibodies. Increasing amounts of srhVim bound to P-selectin/Fc protein and reached saturation at 20 μg/mL. There was no binding of srhVim to PSGL-1/Fc (FIG. 6B).

[2] = molecular target: T1, P-selectin/Fc chimeric protein; experiment: SPR (BIACore), response (RU) against concentration (M); text: binding to immobilized P-sel/Fc, IgG as control
Experimental: as §1

B1: rod domain of human vimentin (amino acids 96-407), expressed from pET30 in E. coli (other)
chain: FKNTRTNEKVELQELNDRFANYIDKVRFLEQQNKILLAELEQLKGQGKSRLGDLYEEEMRELRRQVDQLTNDKARVEVERDNLAEDIMRLREKLQEEMLQREEAENTLQSFRQDVDNASLARLDLERKVESLQEEIAFLKKLHEEEIQELQAQIQEQHVQIDVDVSKPDLTAALRDVRQQYESVAAKNLQEAEEWYKSKFADLSEAANRNNDALRQAKQESTEYRRQVQSLTCEVDALKGTNESLERQMREMEENFAVEAANYQDTIGRLQDEIQNMKEEMARHLREYQDLLNVKMALDIEIATYRKLLEGE
notes: also called ROD vimentin; a portion of vimentin; not shown: His tag from pET30 (Ni2+ purification)
[1]
  Kd: ~125 nM
[2]
  Kd: 125 nM
